{"source": "patent US20040072205A1", "about": "“Methods for treating neuronal disorders” (priority 2002, published 2004)", "key": {"[1]": {"system": "SH-SY5Y neuroblastoma cells", "assay": "THG-mediated SH-SY5Y cell death, MTT assay", "assay_type": "cell-based, Human", "settings": "15 μM THG 12 hours, 1 hour preincubation"}, "[2]": {"system": "SH-SY5Y neuroblastoma cells", "assay": "H2O2-mediated SH-SY5Y cell death, calcein-AM viability", "assay_type": "cell-based, Human", "settings": "6 mM H2O2 4 hours, 24 hours preincubation"}, "[3]": {"system": "Rat primary cortical neurons", "assay": "NMDA neurotoxicity, LDH release", "assay_type": "cell-based", "settings": "500 μM NMDA six hours, two-hour minocycline preincubation"}}, "note": "At least one structure is not confirmed: it was looked up by name or label, or the drawing left a doubt.", "data": [{"compound": "CN(C)c1ccc(O)c2c1C[C@H]1C[C@H]3[C@H](N(C)C)C(O)=C(C(N)=O)C(=O)[C@@]3(O)C(O)=C1C2=O", "note": "[Minocycline]", "values": [{"measurement": "Thapsigargin (THG)-mediated cell death", "setting": "[1]", "value": "inhibited death of SH-SY5Y neuroblastoma cells"}, {"measurement": "H2O2-mediated cell death", "setting": "[2]", "value": "inhibited death of SH-SY5Y neuroblastoma cells"}, {"measurement": "NMDA-induced cell death (LDH release)", "setting": "[3]", "value": "inhibited NMDA-induced cell death"}]}]}
